The values that follow come from article PMC10164743.

The chains behind the UniProt entries cited, without tags or fusion partners.
UniProt Q08775: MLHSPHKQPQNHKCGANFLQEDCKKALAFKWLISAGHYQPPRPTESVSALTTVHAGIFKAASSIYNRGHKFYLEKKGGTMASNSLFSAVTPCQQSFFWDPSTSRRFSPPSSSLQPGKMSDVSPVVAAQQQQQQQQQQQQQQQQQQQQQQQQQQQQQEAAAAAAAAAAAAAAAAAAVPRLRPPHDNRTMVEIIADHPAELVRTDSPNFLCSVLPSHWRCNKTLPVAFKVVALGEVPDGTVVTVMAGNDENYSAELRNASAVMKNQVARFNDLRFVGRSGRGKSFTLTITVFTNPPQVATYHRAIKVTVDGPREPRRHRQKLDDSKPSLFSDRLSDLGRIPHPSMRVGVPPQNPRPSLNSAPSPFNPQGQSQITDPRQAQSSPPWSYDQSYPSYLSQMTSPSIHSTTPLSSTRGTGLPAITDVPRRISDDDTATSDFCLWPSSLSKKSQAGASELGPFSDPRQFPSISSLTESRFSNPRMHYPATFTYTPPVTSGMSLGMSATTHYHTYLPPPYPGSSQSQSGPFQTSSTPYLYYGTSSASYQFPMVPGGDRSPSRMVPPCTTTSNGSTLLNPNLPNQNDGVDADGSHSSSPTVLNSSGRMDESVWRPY

This assay concerns the target Runt-related transcription factor 2 (UniProt Q08775). Put plainly: co-IP; G2/M-synchronized C6 cells transfected with pECMV-Runx2-m-FLAG or pECMV-Fam50a-m-FLAG/pECMV-Runx2-m-FLAG (1:1), lysed with RIPA; immunoprecipitation with anti-Fam50a or anti-Runx2 (anti-IgG as control) on anti-IgG beads, four washes with cell lysis buffer, western blot. (In general: In western blotting, separated proteins are transferred to a membrane and probed.)

No constants are given. Whether binding was seen depends on the method and setting. Binding seen in cells or lysates may run through a third protein. Some binding calls cover weakened binding; strength is not graded here.

B1: Fam50a (protein, UniProt Q9WV03 1-339)
chain: MAQYKGAASEAGRAMHLMKKREKQREQMEQMKQRIAEENIMKSNIDKKFSAHYDAVEAELKSSTVGLVTLNDMKAKQEALVKEREKQLAKKEQSKELQLKLEKLREKERKKEAKRKISSLSFTLEEEEEGVEEEEEMAMYEEELEREEITTKKKKLGKNPDVDTSFLPDRDREEEENRLREELRQEWEAKQEKIKSEEIEITFSYWDGSGHRRTVKMKKGNTMQQFLQKALEILRKDFSELRSAGVEQLMYIKEDLIIPHHHSFYDFIVTKARGKSGPLFNFDVHDDVRLLSDATVEKDESHAGKVVLRSWYEKNKHIFPASRWEPYDPEKKWDKYTIR
In the case of B1, the binding result was “binds”.
